Assay results: PubChem BioAssay AID504847 (National Center for Advancing Translational Sciences (NCATS), 2011)
Values joined by “and” are separate entries in the source; they are usually repeats but may differ in a detail not shown here. Identical values can stand only once. Hit rate of the full screen: of about 400,000 compounds, about 3,700 (0.93%) were called active. Inconclusive results, whose numbers are uncertain, are shown with a selection of clear calls. Calls come from the whole dose curve; as a rule, active = well fitted inhibition curve with a large enough effect; inconclusive = small, poorly fitted or top-dose-only effect, or another doubt; inactive = no such curve, though single readings can be large or run the other way. Potencies of inconclusive entries are doubtful fits and often do not repeat.

By UniProt entry, the sequences of proteins in these tests, tags left out.
UniProt P11473, whole entry, looked up: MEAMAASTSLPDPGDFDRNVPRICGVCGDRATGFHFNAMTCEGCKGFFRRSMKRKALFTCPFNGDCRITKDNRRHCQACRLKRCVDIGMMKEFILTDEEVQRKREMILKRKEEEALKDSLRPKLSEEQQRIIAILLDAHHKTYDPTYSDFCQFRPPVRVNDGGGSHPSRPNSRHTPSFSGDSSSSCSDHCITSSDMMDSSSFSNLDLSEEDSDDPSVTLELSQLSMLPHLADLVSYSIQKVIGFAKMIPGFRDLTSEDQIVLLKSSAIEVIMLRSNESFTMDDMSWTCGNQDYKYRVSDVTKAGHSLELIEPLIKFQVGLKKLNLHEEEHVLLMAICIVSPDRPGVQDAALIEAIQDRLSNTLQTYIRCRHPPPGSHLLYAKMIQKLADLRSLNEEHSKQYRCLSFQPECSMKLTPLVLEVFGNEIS

target: Vitamin D3 receptor (Homo sapiens) (UniProt P11473); experiment: Inhibitors of the vitamin D receptor (VDR): qHTS; conditions: VDR-SRC2-3 peptide fluorescence polarization, 2 h; max response, negative = inhibition: active compounds read low
Procedure, shortened: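 Fluorescence polarization assay of small-molecule disruption of VDR binding to coregulator peptide SRC2-3. Compounds and controls pin-transferred, then read after 2 h incubation at ambient room temperature.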
% is set by controls: 0 for no effect and ±100 for the full control effect; potency is the fitted concentration of half-maximal effect.

| Compound | Potency | max response, negative = inhibition |
| --- | --- | --- |
| O=C(CN1C(=O)CCC1=O)Nc1nc(-c2cccs2)cs1 | inconclusive: 5.01 µM [inhibitor, full curve, poor fit] |  |
| O=C(N1CCOCC1)N1CCN(C(=O)N(c2ccccc2)c2ccccc2)CC1 | inconclusive: 89.1 µM [inhibitor, single point] |  |
| CCC(C(=O)NCCc1ccccc1)n1nc(C)c2sc3ccccc3c2c1=O (centres undefined) |  | inactive: 6.84% |
| Cc1onc(-c2c(Cl)cccc2Cl)c1C(=O)NNc1ccccc1 | inconclusive: 25.1 µM [inhibitor, partial curve, poor fit] |  |
| O=[N+]([O-])c1ccc2c(c1)S(=O)(=O)C=C2 | active: 6.31 µM and active: 12.6 µM |  |
| COc1cc2cnc(-c3ccccc3)c(C(=O)c3ccc(F)cc3)c2cc1OC | inconclusive: 70.8 µM [inhibitor, partial curve, poor fit] |  |
| CCOc1ccc(-c2ccc(/C=C3/C(=N)N4C(C)=CSC4=NC3=O)o2)c([N+](=O)[O-])c1 | inconclusive: 89.1 µM [inhibitor, single point] |  |
| COc1ccc(Nc2oc(COc3ccc(OC)cc3)nc2C#N)cc1 |  | inactive: 0.936% |
| O=C(CC1Nc2ccccc2NC1=O)NCCc1ccccc1 (centres undefined) |  | inactive: 1.03% |
| Cc1ccc(-c2ccc(=O)n(CC(=O)NCCc3ccccc3)n2)cc1 |  | inactive: 8.43% |
| Cc1cccc(/C=C/c2onc(C)c2S(=O)(=O)N2CCC(C(=O)N3CCCCC3)CC2)c1 |  | inactive: 18.6% and inactive: -14.7% |
| CC(=O)c1ccc(OCc2cc(C(=O)N(C)Cc3ccccn3)no2)cc1 |  | inactive: -21.8% |
| CCOc1cc2c(C#N)c(N(CC)CC)nc(N)c2c(N)n1 | active: 44.7 µM |  |
| CCOC(=O)c1ccc(N=c2sc(C(=O)OC)cc(=O)n2Cc2ccc3c(c2)OCO3)cc1 | inconclusive: 100 µM [inhibitor, single point] |  |
| CCOC(=O)C(C)(C)n1nnc(-c2ccc([N+](=O)[O-])cc2)n1 | inconclusive: 89.1 µM [inhibitor, single point] |  |
| Cc1cc(C)nc(NC(=O)/C=C/c2ccc(Cl)cc2)n1 |  | inactive: -4.04% |
| COC(=O)c1ccc(CSC2=NCCS2)cc1 | inconclusive: 0.562 µM [inhibitor, full curve, poor fit] |  |
| O=C(Nc1nc2c(F)cc(F)cc2s1)c1ccccn1 |  | inactive: -1.26% |
| CCOC(=O)[C@H]1[C@H]2COc3ccc(C)cc3[C@@H]2N2C(=O)CN(Cc3ccco3)C(=O)[C@@]12C | inconclusive: 100 µM [inhibitor, single point] |  |
| CC1CCN(CC(=O)Nc2ccc(S(=O)(=O)N3CCCCC3)cc2)CC1 |  | inactive: -12.9% |
| CC(C)C[C@@H](CN1CCCC1CN1C(=S)NC[C@@H]1Cc1ccc(O)cc1)N1C[C@H](Cc2ccc(O)cc2)N(CCc2ccccc2)C1=S (some centres undefined) |  | inactive: -12.3% |
| NNC(=O)c1ccc2c(c1)S(=O)(=O)NNC2=O | inconclusive: 79.4 µM [inhibitor, single point] |  |
| S=c1nc[nH]c2c1ncn2C1CCCO1 (centres undefined) | inconclusive: 56.2 µM [inhibitor, single point] |  |

| Compound | Potency | max response, negative = inhibition |
| --- | --- | --- |
| Oc1c(Br)cc(/C=N/n2c(-c3ccccc3)n[nH]c2=S)c(O)c1Br | inconclusive: 89.1 µM [inhibitor, single point] |  |
| O=c1[nH]c(=O)c2[nH]c(=S)[nH]c2[nH]1 | inconclusive: 56.2 µM [inhibitor, partial curve, poor fit] |  |
| O=C1/C(=C\c2cccnc2)CCc2ccccc21 | inconclusive: 89.1 µM [inhibitor, single point] |  |
| COCC(C)NC(=O)CCS(=O)(=O)c1nc(-c2ccc(OC)cc2)cc(C(F)(F)F)n1 (centres undefined) | active: 79.4 µM |  |
| Cc1ccc(NC(=O)Nc2ccc3c(c2)nc(C)n3C)cc1 |  | inactive: -12.6% |
| CCOC(=O)c1c(C2COc3ccccc3O2)csc1NC(=O)c1ccco1 (centres undefined) | inconclusive: 22.4 µM [inhibitor, full curve, poor fit] |  |
| CCn1nc(C(=O)OCC(=O)NCC(C)C)c2ccccc2c1=O |  | inactive: 5.97% |
| CC(O)c1cccc(-c2ccc(CN3C[C@]4(CO)O[C@@H](CO)C[C@@H]4S3(=O)=O)cc2)c1 (some centres undefined) | inconclusive: 89.1 µM [inhibitor, partial curve, poor fit] |  |
| COc1ccc(Cl)cc1C=CC=Nc1ccc(S(N)(=O)=O)cc1 | inconclusive: 56.2 µM [inhibitor, partial curve, poor fit] |  |
| CCC1CN(C(=O)N2CCC(C(=O)Nc3ccccc3OC)CC2)c2ccccc2O1 (centres undefined) | inconclusive: 20 µM [inhibitor, partial curve] |  |
| COC(=O)c1cccc(S(=O)(=O)N(Cc2ccco2)Cc2cc3cc(OC)ccc3[nH]c2=O)c1 | inconclusive: 79.4 µM [inhibitor, partial curve] |  |
| CCOc1ccccc1NC(=O)N(Cc1ccc(C)o1)C1CCN(C(C)=O)CC1 |  | inactive: 16.7% |
| CCCCC[C@@H](/C=C/C1C(=O)C=C[C@H]1C/C=C\CCCC(=O)O)OC(C)=O (some centres undefined) | active: 79.4 µM |  |
| S=C(NCCN1CCOCC1)Nc1ccc(-c2nc3ccccc3[nH]2)cc1 | inconclusive: 79.4 µM [inhibitor, single point] |  |
| COc1cc(-c2nnc(SCC(=O)N3CCOCC3)o2)cc(OC)c1OC | inconclusive: 89.1 µM [inhibitor, single point] |  |
| COc1ccc(NC(=O)CSc2nc(C)cc(C)n2)cc1 |  | inactive: -11.8% |
| O=C(Nc1ccc(Cl)cn1)c1ccccc1SCc1ccccc1 | inconclusive: 79.4 µM [inhibitor, single point] |  |
| C=CCOC(=O)C(=O)/C=C/c1ccc2c(c1)Cc1ccccc1-2 | active: 22.4 µM |  |
| CCOC(=O)N1CCN(c2nc3ccccn3c(=O)c2C=O)CC1 | inconclusive: 100 µM [inhibitor, single point] |  |
| O=C(C1CCC1)N1CCCc2cc(S(=O)(=O)N3CCN(c4ccccc4)CC3)ccc21 | inconclusive: 89.1 µM [inhibitor, single point] | inactive: -10.3% |
| CC(C)OC(=O)C(C(=O)C(F)(F)F)c1cc(NS(=O)(=O)c2ccc3c4c(cccc24)C(=O)N3)ccc1O (centres undefined) |  | inactive: -10.9% |
| CCOC(=O)C1=C(C)N=c2s/c(=C\c3ccncc3)c(=O)n2C1c1ccc2c(c1)OCO2 (centres undefined) | inconclusive: 44.7 µM [inhibitor, partial curve] |  |
| CC(C)(C)C(=O)c1sc2nc(-c3cccs3)cc(C(F)(F)F)c2c1N | inconclusive: 14.1 µM [inhibitor, partial curve, poor fit] |  |

| Compound | Potency | max response, negative = inhibition |
| --- | --- | --- |
| COc1ccc(CC(=O)NCCc2sc3nc(-c4ccc(OC)cc4)nn3c2C)cc1 |  | inactive: 5.32% |
| COc1cc(/C=C/c2ccc3c(Br)cc(Br)c(O)c3n2)ccc1O | inconclusive: 79.4 µM [inhibitor, partial curve] |  |
| CN1N=C2c3ccccc3CCCC2C1c1ccc(F)cc1 (centres undefined) |  | inactive: 7.43% |
| Cn1cnc([N+](=O)[O-])c1S(=O)(=O)Oc1ccccc1 | active: 25.1 µM |  |
| COc1ccc(/C=N/Nc2nc(-c3ccc(C)cc3)c(NC(C)=O)s2)cc1 | inconclusive: 39.8 µM [inhibitor, single point] |  |
| CCCCC1(C)OC(=O)C(=Cc2ccc(-c3ccc(Cl)c(C(=O)O)c3)o2)C(=O)O1 (centres undefined) | active: 22.4 µM |  |
| CC12C(=O)N(c3ccccn3)C(=O)C1C1C=CC2C1 (centres undefined) | inconclusive: 89.1 µM [inhibitor, partial curve, poor fit] |  |
| CCNC(=S)Nc1ccc(OCc2nc3ccccc3s2)cc1 | active: 70.8 µM |  |
| COc1ccc(NC(=O)CSc2nc3ccccc3nc2N2CCC(C)CC2)cc1 | inconclusive: 89.1 µM [inhibitor, partial curve, poor fit] |  |
| CN(C)CCCNCC(=O)c1c(-c2ccccc2)n(C)c2ccccc12 | active: 79.4 µM |  |
| CN(C)c1ccc(/C(=N\O)C(F)(F)F)cc1 |  | inactive: -11.7% |
| Cc1cc(Sc2ncnc(N)c2[N+](=O)[O-])ncn1 | inconclusive: 35.5 µM [inhibitor, partial curve] |  |
| O=C(CSc1cccc[n+]1[O-])Nc1cc2c(cc1Cl)C(=O)c1ccccc1C2=O |  | inactive: -19.8% |
| COc1ccc2c(c1)c(=Cc1ccc(N(C)C)cc1)c1cc(-c3ccccc3)[n+](C)n12 | inconclusive: 100 µM [inhibitor, single point] |  |
| O=C(COC(=O)CSc1ccc([N+](=O)[O-])cc1)NC1CCCCCCC1 | inconclusive: 89.1 µM [inhibitor, single point] |  |
| CC12CN3CC(=O)N4CC5(C)CN(CC(C)(C4)C5=O)C(=O)CN(C1)CC(C)(C3)C2=O |  | inactive: 5.9% |
| CC(=O)N/C(=C\c1ccccc1)C(=O)OCc1cccc(S(=O)(=O)N(C)C)c1 |  | inactive: 7.38% |
| O=C(O)c1ccc(NC2=C(Cl)C(=O)c3ccccc3C2=O)cc1 | inconclusive: 63.1 µM [inhibitor, partial curve, poor fit] |  |
| Cc1ccc(-c2c(C)n([O-])c3c([n+]2=O)CCCCC3)cc1 |  | inactive: -6.82% |
| N#CCSCC(=O)Nc1ccc(Cl)cc1 | inconclusive: 89.1 µM [inhibitor, single point] |  |
| CC1CCN(CCCOc2ccc(OCc3ccccc3)cc2)CC1 |  | inactive: -4.98% |
| COc1ccc(N2CCN(C(=O)CNC(=O)c3ccco3)CC2)cc1 | inconclusive: 89.1 µM [inhibitor, single point] |  |
